# These are yes or no findings as the source states them, for the method shown. Binding seen in cells or lysates may run through a third protein. Some binding calls cover weakened binding; strength is not graded here.
# Amino acid sequences for entries named in this document (tags omitted). A change or cut given only in a name is not applied to a line headed by its entry. Chains listed by the source or under a name are the forms on record and can include a tag or linker. Residues count along the entry.
# FCN3-Flag (O75636-2, form named): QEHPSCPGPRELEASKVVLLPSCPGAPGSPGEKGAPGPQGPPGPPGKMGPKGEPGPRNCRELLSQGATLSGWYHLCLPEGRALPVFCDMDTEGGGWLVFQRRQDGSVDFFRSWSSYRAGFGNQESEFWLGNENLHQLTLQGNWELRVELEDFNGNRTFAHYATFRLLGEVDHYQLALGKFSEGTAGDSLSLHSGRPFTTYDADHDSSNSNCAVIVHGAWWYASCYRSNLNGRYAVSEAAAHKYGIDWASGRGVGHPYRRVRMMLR
# UniProt P06213: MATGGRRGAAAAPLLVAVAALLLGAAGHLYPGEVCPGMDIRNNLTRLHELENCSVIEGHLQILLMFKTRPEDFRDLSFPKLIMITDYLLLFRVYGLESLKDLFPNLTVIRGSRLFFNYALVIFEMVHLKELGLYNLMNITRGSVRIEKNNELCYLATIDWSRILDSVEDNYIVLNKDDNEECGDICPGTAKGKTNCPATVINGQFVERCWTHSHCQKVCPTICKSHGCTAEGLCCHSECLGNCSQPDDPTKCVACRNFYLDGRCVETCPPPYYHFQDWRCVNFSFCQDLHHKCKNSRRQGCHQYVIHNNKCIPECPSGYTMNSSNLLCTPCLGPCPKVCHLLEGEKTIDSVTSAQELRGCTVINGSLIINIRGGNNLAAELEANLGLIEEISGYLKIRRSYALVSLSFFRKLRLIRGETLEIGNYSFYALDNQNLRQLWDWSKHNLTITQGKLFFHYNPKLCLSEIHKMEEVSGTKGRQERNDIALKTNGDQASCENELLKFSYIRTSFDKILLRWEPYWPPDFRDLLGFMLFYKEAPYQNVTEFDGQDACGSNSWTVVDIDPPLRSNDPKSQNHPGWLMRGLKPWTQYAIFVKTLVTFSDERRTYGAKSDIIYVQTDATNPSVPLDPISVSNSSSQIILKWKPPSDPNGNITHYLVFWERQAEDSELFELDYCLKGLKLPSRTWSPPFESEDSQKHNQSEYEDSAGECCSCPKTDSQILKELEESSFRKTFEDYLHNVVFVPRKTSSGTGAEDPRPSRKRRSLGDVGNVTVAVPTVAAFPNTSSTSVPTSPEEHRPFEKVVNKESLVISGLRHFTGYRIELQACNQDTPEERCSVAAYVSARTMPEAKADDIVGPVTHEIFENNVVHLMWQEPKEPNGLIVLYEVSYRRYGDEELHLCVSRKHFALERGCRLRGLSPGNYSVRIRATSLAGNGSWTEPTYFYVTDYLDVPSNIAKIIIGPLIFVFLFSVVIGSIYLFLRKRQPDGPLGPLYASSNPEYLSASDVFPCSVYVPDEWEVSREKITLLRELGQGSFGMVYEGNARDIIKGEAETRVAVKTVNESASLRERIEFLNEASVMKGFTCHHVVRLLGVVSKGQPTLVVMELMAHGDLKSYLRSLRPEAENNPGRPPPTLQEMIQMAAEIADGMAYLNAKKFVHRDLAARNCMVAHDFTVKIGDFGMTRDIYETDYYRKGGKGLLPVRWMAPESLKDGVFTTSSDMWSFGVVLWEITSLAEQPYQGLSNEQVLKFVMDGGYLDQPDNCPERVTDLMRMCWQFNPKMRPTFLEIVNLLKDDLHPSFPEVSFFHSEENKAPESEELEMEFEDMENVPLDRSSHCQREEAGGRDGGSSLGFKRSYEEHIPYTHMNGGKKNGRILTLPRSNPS
# HA-tagged insulin receptor (pro-IR cDNA with a C-terminal HA-tag): residues 28-1382 of P06213
# What was measured:
# nsFCN3-Flag (human) = nsFCN3-Flag (human) (UniProt O75636); assay: co-IP; reverse semi-endogenous co-IP: Flag antibody immunoprecipitation from lysates of HEK-293T cells transfected with FCN3-Flag or nsFCN3-Flag; protein A/G sepharose beads, IP lysis buffer, 4 °C overnight; blots for IR-β, pro-IR, PTP1B and FCN3
# FCN3-Flag (human) = FCN3-Flag (human) (UniProt O75636); assay: as above
# [1] = target: HA-tagged insulin receptor (pro-IR cDNA with a C-terminal HA-tag) (UniProt P06213); assay: co-IP; anti-HA immunoprecipitation of IR-HA from lysates of HEK-293T cells transfected with IR-HA, with or without FCN3 or nsFCN3; protein A/G sepharose beads, IP lysis buffer, 4 °C overnight; blots for FCN3, PTP1B, Furin and HA
binding (nsFCN3-Flag (human)),binding (FCN3-Flag (human)),binding [1],Molecule
binds,binds,,"insulin receptor β (IR-β), endogenous (from UniProt P06213 763-1382)"
binds,binds,,pro-insulin receptor (pro-IR) (from UniProt P06213 28-1382)
,,binds,"no-secretory mutant of FCN3 (nsFCN3, Δaa 2–23) (from UniProt O75636-2 24-288)"
,,binds,Ficolin 3 (FCN3) (from UniProt O75636-2 24-288)
binds,binds,binds,"protein tyrosine phosphatase nonreceptor type 1 (PTP1B) (enzyme, UniProt P18031 1-435) MEMEKEFEQIDKSGSWAAIYQDIRHEASDFPCRVAKLPKNKNRNRYRDVSPFDHSRIKLHQEDNDYINASLIKMEEAQRSYILTQGPLPNTCGHFWEMVWEQKSRGVVMLNRVMEKGSLKCAQYWPQKEEKEMIFEDTNLKLTLISEDIKSYYTVRQLELENLTTQETREILHFHYTTWPDFGVPESPASFLNFLFKVRESGSLSPEHGPVVVHCSAGIGRSGTFCLADTCLLLMDKRKDPSSVDIKKVLLEMRKFRMGLIQTADQLRFSYLAVIEGAKFIMGDSSVQDQWKELSHEDLEPPPEHIPPPPRPPKRILEPHNGKCREFFPNHQWVKEETQEDKDCPIKEEKGSPLNAAPYGIESMSQDTEVRSRVVGGSLRGAQAASPAKGEPSLPEKDEDHALSYWKPFLVNMCVATVLTAGAYLCYRFLFNSNT"
